{"source": "patent US6509401B1", "about": "“Synergistic flame retardant combination of salts of 1-hydroxy-dihydrophosphole oxides and/or 1-hydroxyphospholane oxides and nitrogen compounds for use in polymers” (Clariant GmbH, priority 1997, dated 2003)", "key": {"[1]": {"experiment": "UL 94 test (Underwriter Laboratories) flame retardancy classification of injection-molded test specimens", "set-up": "key: n. c. = not classifiable"}, "[2]": {"experiment": "Oxygen index (LOI in accordance with ASTM D 2863-77)"}, "[3]": {"conditions": "PBT-GV, nitrogen compound 10 % as sole flame retardant"}, "[4]": {"conditions": "PBT-GV, nitrogen compound 20 % as sole flame retardant"}, "[5]": {"conditions": "ABS, 30 % as sole flame retardant"}, "[6]": {"conditions": "PBT-GV, 20 % as sole flame retardant"}, "[7]": {"conditions": "PBT-GV, 25 % as sole flame retardant"}}, "data": [{"smiles": "Nc1nc(N)nc(N)n1.O=c1[nH]c(=O)[nH]c(=O)[nH]1", "note": "[Melamine cyanurate]", "values": [{"measurement": "UL 94 classification (1.6 mm)", "setting": "[1]; [3]", "result": "n. c.*)"}, {"measurement": "UL 94 classification (1.6 mm)", "setting": "[1]; [4]", "result": "n. c.*)"}, {"measurement": "UL 94 classification (1.6 mm)", "setting": "[1]; PBT-GV, nitrogen compound 25 % as sole flame retardant", "result": "n. c.*)"}]}, {"smiles": "O=P1([O-])CCCC1.O=P1([O-])CCCC1.O=P1([O-])CCCC1.[Al+3]", "note": "[PHOLAL, Aluminum salt of 1-hydroxy-1H-phospholane 1-oxide]", "values": [{"measurement": "LOI", "setting": "[2]; [5]", "result": 22.5, "unit": "%"}, {"measurement": "LOI", "setting": "[2]; PA 6, 15 % as sole flame retardant", "result": 28.5, "unit": "%"}, {"measurement": "LOI", "setting": "[2]; PA 6, 20 % as sole flame retardant", "result": 28.0, "unit": "%"}, {"measurement": "LOI", "setting": "[2]; [6]", "result": 37.0, "unit": "%"}, {"measurement": "LOI", "setting": "[2]; [7]", "result": 41.0, "unit": "%"}, {"measurement": "LOI", "setting": "[2]; PBT, 10 % as sole flame retardant", "result": 33.0, "unit": "%"}, {"measurement": "LOI", "setting": "[2]; PBT, 15 % as sole flame retardant", "result": 34.0, "unit": "%"}, {"measurement": "LOI", "setting": "[2]; PBT, 20 % as sole flame retardant", "result": 37.0, "unit": "%"}, {"measurement": "UL 94 classification (1.6 mm)", "setting": "[1]; [5]", "result": "n. c.*)"}]}, {"smiles": "CC1CCP(=O)([O-])C1.CC1CCP(=O)([O-])C1.CC1CCP(=O)([O-])C1.[Al+3]", "note": "(stereo not shown) [Methyl-PHOLAL, Aluminum salt of 1-hydroxy-3-methyl-1H-phospholane 1-oxide]", "values": [{"measurement": "UL 94 classification (1.6 mm)", "setting": "[1]; [6]", "result": "n. c.*)"}, {"measurement": "UL 94 classification (1.6 mm)", "setting": "[1]; [7]", "result": "n. c.*)"}]}, {"smiles": "Nc1nc(N)nc(N)n1.O=P(O)(O)O", "note": "[Melamine phosphate]", "values": [{"measurement": "UL 94 classification (1.6 mm)", "setting": "[1]; [3]", "result": "n. c.*)"}, {"measurement": "UL 94 classification (1.6 mm)", "setting": "[1]; [4]", "result": "n. c.*)"}]}]}
